Source: paper PMC4496399
No constants are given. Whether binding was seen depends on the method and setting. In cells and extracts the contact can be indirect. Here binding means that the protein was enriched with, or labelled near, the bait; the list need not be complete.

Chains of the proteins cited; added tags and fusions are not shown. Residues count along the entry.
UniProt P04629, residues 33-796: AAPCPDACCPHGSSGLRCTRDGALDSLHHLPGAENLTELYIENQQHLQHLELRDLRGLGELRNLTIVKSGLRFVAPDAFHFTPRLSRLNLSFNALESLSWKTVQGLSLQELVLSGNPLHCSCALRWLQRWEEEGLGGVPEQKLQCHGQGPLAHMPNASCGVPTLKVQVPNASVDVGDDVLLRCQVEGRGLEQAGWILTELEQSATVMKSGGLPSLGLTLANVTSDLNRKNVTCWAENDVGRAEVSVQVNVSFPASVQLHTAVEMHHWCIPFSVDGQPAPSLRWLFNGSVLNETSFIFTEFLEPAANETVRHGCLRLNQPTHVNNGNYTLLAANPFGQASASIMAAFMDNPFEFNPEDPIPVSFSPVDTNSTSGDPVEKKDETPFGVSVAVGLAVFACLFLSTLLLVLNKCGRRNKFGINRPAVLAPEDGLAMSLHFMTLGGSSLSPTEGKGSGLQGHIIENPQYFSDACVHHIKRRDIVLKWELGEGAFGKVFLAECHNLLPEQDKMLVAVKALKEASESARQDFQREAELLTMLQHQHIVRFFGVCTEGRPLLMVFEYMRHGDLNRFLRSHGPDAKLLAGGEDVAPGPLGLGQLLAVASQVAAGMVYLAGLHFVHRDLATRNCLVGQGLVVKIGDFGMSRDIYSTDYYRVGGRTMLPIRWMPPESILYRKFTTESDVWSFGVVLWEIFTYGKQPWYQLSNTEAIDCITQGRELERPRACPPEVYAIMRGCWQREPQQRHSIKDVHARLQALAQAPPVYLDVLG
UniProt P16070, residues 21-742: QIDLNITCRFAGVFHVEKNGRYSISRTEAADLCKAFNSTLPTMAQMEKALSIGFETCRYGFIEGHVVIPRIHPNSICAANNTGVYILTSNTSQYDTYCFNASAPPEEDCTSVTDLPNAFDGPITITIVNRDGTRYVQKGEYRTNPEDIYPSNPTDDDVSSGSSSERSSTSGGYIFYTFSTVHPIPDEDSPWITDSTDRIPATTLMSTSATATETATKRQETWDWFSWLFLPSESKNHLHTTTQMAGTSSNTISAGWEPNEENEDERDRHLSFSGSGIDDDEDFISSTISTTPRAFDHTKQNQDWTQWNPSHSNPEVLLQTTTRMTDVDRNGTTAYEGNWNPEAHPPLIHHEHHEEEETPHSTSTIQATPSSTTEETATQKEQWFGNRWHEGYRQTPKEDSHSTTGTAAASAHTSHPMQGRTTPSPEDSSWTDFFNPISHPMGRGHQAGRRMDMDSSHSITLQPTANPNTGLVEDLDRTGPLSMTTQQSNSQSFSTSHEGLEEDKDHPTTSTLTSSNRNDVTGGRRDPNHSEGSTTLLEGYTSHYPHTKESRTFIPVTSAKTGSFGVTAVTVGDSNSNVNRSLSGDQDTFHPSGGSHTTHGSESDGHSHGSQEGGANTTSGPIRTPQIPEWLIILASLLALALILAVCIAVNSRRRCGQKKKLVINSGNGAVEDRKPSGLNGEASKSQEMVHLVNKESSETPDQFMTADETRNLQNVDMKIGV
UniProt Q05397: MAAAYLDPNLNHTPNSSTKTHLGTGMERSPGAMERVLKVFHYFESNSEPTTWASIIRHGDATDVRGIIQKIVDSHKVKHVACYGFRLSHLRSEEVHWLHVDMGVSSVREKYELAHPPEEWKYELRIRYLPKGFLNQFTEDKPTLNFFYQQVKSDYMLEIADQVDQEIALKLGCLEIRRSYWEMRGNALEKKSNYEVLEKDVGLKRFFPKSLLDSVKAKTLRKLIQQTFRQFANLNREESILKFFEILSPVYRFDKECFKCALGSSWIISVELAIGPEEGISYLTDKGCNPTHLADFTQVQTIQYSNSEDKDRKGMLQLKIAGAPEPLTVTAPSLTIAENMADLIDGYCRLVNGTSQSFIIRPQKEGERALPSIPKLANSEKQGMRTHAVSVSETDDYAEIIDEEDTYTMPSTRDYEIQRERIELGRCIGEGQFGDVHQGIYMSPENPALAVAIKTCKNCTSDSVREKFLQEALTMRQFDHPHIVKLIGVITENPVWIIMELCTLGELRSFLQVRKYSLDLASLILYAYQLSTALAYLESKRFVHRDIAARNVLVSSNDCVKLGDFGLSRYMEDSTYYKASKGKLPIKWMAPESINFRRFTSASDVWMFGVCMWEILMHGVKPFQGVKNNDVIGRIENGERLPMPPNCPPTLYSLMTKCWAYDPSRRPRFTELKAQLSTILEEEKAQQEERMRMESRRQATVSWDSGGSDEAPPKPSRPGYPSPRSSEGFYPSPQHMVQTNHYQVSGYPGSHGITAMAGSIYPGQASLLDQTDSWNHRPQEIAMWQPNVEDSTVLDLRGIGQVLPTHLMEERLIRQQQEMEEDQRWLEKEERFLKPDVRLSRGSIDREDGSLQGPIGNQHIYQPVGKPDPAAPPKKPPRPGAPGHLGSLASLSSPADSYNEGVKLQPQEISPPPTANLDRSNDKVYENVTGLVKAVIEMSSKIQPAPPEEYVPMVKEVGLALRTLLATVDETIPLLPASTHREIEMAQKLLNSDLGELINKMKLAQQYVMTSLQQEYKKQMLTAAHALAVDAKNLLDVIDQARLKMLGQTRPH
UniProt P12814: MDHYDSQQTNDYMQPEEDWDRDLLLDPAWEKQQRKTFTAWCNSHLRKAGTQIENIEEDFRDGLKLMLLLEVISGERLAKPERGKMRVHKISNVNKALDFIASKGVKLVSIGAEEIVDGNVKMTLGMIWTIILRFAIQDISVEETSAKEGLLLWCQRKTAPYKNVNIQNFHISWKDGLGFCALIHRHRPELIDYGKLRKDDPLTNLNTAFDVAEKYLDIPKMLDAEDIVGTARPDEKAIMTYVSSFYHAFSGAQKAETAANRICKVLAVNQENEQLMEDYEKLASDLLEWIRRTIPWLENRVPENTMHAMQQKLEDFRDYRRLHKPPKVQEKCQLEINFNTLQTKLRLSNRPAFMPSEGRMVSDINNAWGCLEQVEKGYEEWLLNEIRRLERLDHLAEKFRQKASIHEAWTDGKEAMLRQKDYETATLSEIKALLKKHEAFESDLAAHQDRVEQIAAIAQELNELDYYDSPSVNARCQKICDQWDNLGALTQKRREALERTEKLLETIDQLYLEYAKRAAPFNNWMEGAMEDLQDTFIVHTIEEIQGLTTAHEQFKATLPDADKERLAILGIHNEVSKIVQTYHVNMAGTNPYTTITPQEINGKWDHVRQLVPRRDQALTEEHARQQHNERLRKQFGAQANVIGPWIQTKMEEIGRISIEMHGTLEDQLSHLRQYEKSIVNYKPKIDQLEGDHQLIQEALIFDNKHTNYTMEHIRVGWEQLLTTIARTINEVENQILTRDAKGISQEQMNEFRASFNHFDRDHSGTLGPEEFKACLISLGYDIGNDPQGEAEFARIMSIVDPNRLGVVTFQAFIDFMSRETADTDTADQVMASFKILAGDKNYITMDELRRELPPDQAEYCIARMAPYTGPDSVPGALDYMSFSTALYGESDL
UniProt P15311: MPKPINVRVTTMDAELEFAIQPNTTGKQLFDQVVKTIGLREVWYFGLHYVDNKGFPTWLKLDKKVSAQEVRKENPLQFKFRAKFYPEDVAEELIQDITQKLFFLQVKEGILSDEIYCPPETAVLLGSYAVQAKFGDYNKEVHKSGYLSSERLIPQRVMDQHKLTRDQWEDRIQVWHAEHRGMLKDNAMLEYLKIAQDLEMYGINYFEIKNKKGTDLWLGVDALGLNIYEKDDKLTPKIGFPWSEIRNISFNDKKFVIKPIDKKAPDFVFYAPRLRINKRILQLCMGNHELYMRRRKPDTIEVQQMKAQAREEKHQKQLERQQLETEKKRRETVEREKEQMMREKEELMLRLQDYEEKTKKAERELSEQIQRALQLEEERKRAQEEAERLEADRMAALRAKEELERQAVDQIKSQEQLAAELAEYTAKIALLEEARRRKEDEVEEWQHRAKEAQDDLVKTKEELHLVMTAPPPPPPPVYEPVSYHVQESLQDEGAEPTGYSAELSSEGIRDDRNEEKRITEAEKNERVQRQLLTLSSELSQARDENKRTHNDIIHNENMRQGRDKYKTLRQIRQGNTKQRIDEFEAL
UniProt Q9UHB6: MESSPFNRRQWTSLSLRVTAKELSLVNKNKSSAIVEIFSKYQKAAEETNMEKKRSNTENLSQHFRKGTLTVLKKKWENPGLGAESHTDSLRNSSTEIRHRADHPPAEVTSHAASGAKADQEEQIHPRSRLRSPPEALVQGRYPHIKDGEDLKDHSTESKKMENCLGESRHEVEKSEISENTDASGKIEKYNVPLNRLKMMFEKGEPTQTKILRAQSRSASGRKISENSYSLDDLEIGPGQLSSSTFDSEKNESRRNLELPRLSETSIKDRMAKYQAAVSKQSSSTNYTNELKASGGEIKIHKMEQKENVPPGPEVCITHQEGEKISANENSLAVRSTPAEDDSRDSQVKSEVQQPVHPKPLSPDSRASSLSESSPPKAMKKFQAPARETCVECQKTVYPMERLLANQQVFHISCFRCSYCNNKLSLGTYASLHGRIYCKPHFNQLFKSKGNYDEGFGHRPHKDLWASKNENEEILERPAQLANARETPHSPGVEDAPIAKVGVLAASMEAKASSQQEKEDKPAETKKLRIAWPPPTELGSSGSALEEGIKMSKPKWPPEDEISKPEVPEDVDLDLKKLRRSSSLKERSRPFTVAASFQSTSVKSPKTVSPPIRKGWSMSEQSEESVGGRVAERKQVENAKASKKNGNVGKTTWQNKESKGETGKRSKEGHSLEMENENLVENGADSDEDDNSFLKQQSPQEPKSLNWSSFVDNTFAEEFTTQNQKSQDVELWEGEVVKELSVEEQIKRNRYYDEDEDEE
UniProt P26038: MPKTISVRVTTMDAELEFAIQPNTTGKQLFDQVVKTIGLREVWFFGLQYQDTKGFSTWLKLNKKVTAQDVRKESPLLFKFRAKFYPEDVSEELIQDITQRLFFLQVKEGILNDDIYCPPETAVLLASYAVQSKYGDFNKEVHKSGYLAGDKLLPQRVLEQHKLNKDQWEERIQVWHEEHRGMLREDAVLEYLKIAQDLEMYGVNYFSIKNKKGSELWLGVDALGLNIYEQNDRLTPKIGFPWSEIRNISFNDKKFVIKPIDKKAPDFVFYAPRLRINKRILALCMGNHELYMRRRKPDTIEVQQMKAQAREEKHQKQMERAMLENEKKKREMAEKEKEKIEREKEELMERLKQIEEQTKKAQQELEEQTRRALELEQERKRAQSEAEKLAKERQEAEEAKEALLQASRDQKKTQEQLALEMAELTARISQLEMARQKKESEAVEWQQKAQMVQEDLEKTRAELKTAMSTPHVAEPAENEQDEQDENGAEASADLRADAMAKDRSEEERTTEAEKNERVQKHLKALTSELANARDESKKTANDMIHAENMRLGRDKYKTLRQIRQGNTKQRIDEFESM

Target: HA-TrkA (UniProt P04629)
Assay: affinity purification with mass spectrometry; anti-HA IP from lysates of HA-TrkA MDA-MB-231 cells treated with NGF (16 nM) for 30 min; eluates on SDS-PAGE, bands of increased intensity in NGF-treated cells excised, nanoLC-MS/MS

Substance | binding
CD44 antigen (from UniProt P16070 21-742) (receptor) | binds
Focal adhesion kinase 1 (from UniProt Q05397 1-1052) (enzyme) | binds
Alpha-actinin-1 (from UniProt P12814 1-892) | binds
Ezrin (from UniProt P15311 1-586) | binds
LIM domain and actin-binding protein 1 (from UniProt Q9UHB6 1-759) | binds
Moesin (from UniProt P26038 1-577) | binds
